No constants are given. Whether binding was seen depends on the method and setting. In cells and extracts the contact can be indirect. Some entries that bind do so weakly or less than the wild type.

These results are taken from publication PMC7642387.

This experiment has as its target T1, Nup50 (human (endogenous in HeLa)) (UniProt Q9UKX7).
T1 sequence: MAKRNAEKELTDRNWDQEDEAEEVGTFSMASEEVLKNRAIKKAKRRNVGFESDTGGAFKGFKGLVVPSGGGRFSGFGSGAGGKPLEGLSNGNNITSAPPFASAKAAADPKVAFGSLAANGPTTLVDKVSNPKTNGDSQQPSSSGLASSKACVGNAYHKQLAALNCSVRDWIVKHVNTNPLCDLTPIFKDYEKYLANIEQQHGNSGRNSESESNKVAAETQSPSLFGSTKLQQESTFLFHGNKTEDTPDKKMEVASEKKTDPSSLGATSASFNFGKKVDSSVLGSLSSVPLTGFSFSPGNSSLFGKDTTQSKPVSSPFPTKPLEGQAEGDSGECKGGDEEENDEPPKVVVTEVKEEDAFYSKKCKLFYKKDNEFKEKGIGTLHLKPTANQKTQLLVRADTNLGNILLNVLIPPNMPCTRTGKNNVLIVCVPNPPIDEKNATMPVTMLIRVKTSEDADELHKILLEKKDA
The experiment can be described thus: co-IP; HeLa lysate (200 µg) with Nup50 or control IgG antibody (3 µg) for 2 h at 4 °C, protein-A/G agarose overnight; blot with Nup50 or Sig-1R (Santa Cruz B5) antibody; both proteins endogenous.

Turning to “endogenous Sig-1R (sigma-1 receptor) (from UniProt Q99720-1 1-223)”, the binding result is “binds”.
